Data published in patent US20170275356A1.
Results are given in words; binding and its absence hold for the method and conditions named. Some entries that bind do so weakly or less than the wild type.

Protein sequences, listed by entry. Tags and fused reporters are not part of them. Lines headed by an entry give the natural chain unless they say otherwise; changes in a name come on top. Residues count along the entry.
UniProt Q5VWK5, residues 24-353: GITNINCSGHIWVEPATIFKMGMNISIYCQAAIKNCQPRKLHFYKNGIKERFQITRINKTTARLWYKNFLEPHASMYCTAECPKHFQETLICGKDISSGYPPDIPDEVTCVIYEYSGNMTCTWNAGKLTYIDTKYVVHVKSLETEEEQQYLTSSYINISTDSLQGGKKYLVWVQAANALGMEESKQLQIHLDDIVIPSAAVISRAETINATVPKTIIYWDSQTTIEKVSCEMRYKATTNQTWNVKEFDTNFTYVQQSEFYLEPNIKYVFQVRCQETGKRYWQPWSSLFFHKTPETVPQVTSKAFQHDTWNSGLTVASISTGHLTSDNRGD
UniProt P29460: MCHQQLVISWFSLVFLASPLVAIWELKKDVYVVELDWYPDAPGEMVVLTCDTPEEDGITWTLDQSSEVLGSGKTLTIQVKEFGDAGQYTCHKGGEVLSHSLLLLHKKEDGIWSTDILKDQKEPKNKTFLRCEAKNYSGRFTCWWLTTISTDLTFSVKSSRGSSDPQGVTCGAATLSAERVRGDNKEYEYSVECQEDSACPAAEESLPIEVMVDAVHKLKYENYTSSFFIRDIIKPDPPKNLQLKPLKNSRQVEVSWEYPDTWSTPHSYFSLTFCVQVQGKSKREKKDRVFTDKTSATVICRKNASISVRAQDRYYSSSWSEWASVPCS

Target: Recombinant human IL-23R/Fc (human) (UniProt Q5VWK5)
Test: SPR (BIAcore), IL-23R/Fc amine-coupled, IL-23 injected without antibody

For “human IL-23 (from UniProt P29460 23-328) (ligand)”, the binding was “binds”.
